This note sets out measurements from US11873354B2, “Photobase generator, compound, photoreactive composition, and reaction product” (Tokyo University of Science Foundation, priority 2019, dated 2024).

The nature of this series: Behavior in polymer solid under light irradiation, FT-IR (Test Examples 9, 10). Conditions: in polytetramethylene glycol film, 313 nm or 365 nm, as exposure doses increased. In kind it is physicochemical.

For the compound `CC1=NCCN1C(=O)/C=C/c1cc(C(C)(C)C)cc(C(C)(C)C)c1O` [Compound (1)-3], the “peak intensity derived from the amide group” value is on record as “decreased” and the “peak intensity derived from the lactone structure” value is “increased”.
